Measured values as given in article PMC7862700.
The entries are a selection whose mix differs from that of the whole data set. At the low end of the ranking the order means little.

Protein sequences, listed by entry. Tags and fused reporters are not part of them. Lines headed by an entry give the natural chain unless they say otherwise; changes in a name come on top.
UniProt O43186: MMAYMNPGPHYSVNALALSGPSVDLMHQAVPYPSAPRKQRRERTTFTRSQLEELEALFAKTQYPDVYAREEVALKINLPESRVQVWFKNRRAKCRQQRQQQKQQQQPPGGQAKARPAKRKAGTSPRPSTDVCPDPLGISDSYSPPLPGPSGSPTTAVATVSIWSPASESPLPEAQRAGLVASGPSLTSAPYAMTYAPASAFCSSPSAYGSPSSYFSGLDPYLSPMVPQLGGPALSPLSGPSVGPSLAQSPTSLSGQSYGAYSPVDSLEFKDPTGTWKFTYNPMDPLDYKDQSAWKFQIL

Experiments:
Assay in all cases: DAPPL (digital affinity profiling via proximity ligation, sequencing)
Details in all cases: 10 mM Tris-HCl pH 7.5, 50 mM NaCl, 1 mM DTT, 4% glycerol, room temperature, 30 min; GST-TFs on glutathione beads, 16-mer random dsDNA library, 0.1% …; high values mean tight binding; double strand, one strand shown; scale: fold enrichment (6-mer frequency, TF over GST control)
CRX = CRX (UniProt O43186)
ELF5 = target: T1, ELF5 (UniProt Q9UKW6-2)
T1 sequence: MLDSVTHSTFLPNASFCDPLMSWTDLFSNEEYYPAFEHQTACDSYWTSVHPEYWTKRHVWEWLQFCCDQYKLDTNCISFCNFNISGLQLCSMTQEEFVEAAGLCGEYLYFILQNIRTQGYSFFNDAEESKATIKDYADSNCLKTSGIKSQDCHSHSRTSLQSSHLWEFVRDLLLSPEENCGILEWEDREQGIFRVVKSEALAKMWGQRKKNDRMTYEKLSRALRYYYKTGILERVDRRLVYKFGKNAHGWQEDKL

FEV = target: T2, FEV (UniProt Q99581)
T2 sequence: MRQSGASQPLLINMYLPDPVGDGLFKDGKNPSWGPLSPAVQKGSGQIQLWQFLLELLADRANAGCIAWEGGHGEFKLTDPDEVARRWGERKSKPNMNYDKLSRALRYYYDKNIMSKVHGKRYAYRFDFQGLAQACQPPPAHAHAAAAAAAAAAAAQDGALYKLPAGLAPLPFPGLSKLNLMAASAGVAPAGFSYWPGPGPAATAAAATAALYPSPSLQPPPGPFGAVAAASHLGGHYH

Row | Sequence | binding signal (CRX) | binding signal (ELF5) | binding signal (FEV)
1 | CACACT | 0.907 | 1.18 | –
2 | TGCTAC | 0.967 | 1.17 | –
3 | CAAGGT | 0.841 | 0.966 | –
4 | TACCGC | 1.03 | 1.08 | –
5 | TGAAAA | 0.978 | 1.06 | –
6 | CTTGCC | 1.1 | 1.29 | –
7 | ACTAGC | 1.11 | 1.13 | –
8 | GAACAT | 1.03 | 1.09 | 1.01
9 | GAATAC | 0.92 | 1.03 | 0.968
10 | GAACCA | 0.754 | 1.01 | 0.951
11 | TTGAAC | 1.03 | 0.968 | 0.993
12 | ATTGAT | 1.46 | 1.27 | 1.25
13 | TATTGG | 1.4 | – | 1.14
14 | TTATAG | 2.46 | 1.15 | 1.17
15 | CGAGTT | 0.905 | 0.907 | 0.996
16 | TTCAAA | 1.28 | 1.21 | 1.25
17 | AACAGG | 0.84 | – | 1.16
18 | GATATA | 1.19 | 1.13 | 1.08
19 | CGACCC | 0.974 | 1.26 | 1.17
20 | GCCTCA | 0.991 | 1.15 | 1.19
21 | CGATGA | 0.936 | 1.01 | 0.97
22 | GAACAC | 0.863 | – | 1.08
23 | TGCTGA | 1.04 | 1 | 0.989
24 | AGATTC | 1.41 | – | 1.13
25 | AATTGT | 1.17 | 1.35 | 1.25
26 | CATTTC | 0.946 | – | 2.2
27 | TACTAC | 1.13 | 1.36 | 1.35

Row | Sequence | binding signal (CRX) | binding signal (ELF5) | binding signal (FEV)
28 | TATGTA | 1.51 | – | 1.28
29 | ACCAAC | 0.924 | 1.13 | 1.19
30 | GCTCTG | 0.911 | 1.02 | 1.25
31 | TCACTT | 1.23 | – | 1.99
32 | GCTCGT | 0.99 | 1.1 | 1.06
33 | ATATTA | 1.8 | 1.09 | 1.07
34 | AACATG | 0.992 | 1.15 | 1.1
35 | ACGTTC | 1.28 | 1.42 | 1.3
36 | TATGGC | 1.34 | 1.23 | 1.36
37 | TCTCTA | 1.56 | – | 1.32
38 | TGTTAT | 1.4 | 1.36 | 1.34
39 | ACAATC | 1.36 | 1.19 | 1.11
40 | GGAACA | 0.774 | – | 1.01
41 | GTTACG | 0.818 | 0.987 | 0.968
42 | TTAACC | 2.67 | – | 1.29
43 | CAACAA | 0.889 | 1.03 | 1.05
44 | GGTTTC | 0.965 | 1.52 | 1.55
45 | CCATGC | 0.828 | 1.03 | 1.1
46 | TTTTCA | 1.28 | 1.25 | 1.17
47 | TAATAG | 1.94 | 1.15 | 1.18
48 | GTCCAC | 0.627 | 0.936 | 1.08
49 | TCTGCA | 1.25 | 1.29 | 1.43
50 | GCACCC | 0.762 | 1.17 | 1.12
51 | GGTCCT | 0.702 | 0.976 | 0.948
52 | GTTGCA | 0.761 | 1.1 | 1.11
53 | CTACTC | 1.28 | – | 1.37
54 | ACGTTA | 1.17 | – | 1.13

Entries 42 to 44, quoted:
Row | Sequence | binding signal (CRX) | binding signal (ELF5) | binding signal (FEV)
42 | TTAACC | 2.67 | – | 1.29
43 | CAACAA | 0.889 | 1.03 | 1.05
44 | GGTTTC | 0.965 | 1.52 | 1.55
